Our source for the cell number change and AC50 values is PubChem BioAssay AID2685 (National Center for Advancing Translational Sciences (NCATS), 2010).

This test in a line: qHTS Assay for Lipid Storage Modulators in Drosophila S3 Cells.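 On cell number change: cells counted by Cell Tracker Red CMTPX staining in the red channel.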 The note with it: BODIPY lipid droplet fluorescence, 18-24 h; for cell number change: measured here: cell count max response, cells fed with added oleic acid. The method in brief: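 Laser-scanning cytometry quantifies lipid droplet accumulation (500–530 nm total intensity; droplet/cell object ratio) in oleic acid-fed (400 uM added) Drosophila S3 cells treated with a concentration series. 20 uM Triacsin C defined 100% inhibition.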
(In general: Quantitative high-throughput screening tests each substance at several concentrations.)

The mark [1] stands for this setting: measured here: cell number channel AC50, cells fed with added oleic acid.
The mark [2] stands for this setting: measured here: lipid fluorescence (Fed channel) AC50, cells fed with added oleic acid.

The other results are listed elsewhere or left out. Further columns of the screen follow, without active or inactive calls. Most of these compounds were active or inconclusive in the main read-out, so they are no random draw. The note in brackets gives the kind of curve behind each potency; many fits are weak.

Regarding `NNc1nc2ccc(F)cc2s1`, the cell number change is -50%. In addition, the AC50 under setting [1] was 0.651 µM [falling, full curve, poor fit]. The AC50 under setting [2] was 5.8 µM [rising, full curve].
`CN(CCN(C)C(C)(C)C)C(=O)C(c1ccccc1)c1ccccc1`: the cell number change was found to be 31.1%. For the same compound, the AC50 under setting [1] is 16.4 µM [rising, single point].
In the case of `COc1ccccc1N1CCN(C(=O)c2cc3cc(F)ccc3[nH]2)CC1`, the cell number change stood at 17.6%.
With `Cc1cc2occ(CC(=O)O)c2cc1C`, the cell number change is -13.4%.
Turning to `C[N+](C)(C)CCCCCC(=O)/C=N/O`, the cell number change is -12.6%. The AC50 under setting [2] is 0.0291 µM [falling, full curve, poor fit].
For the compound `Cc1ccc(C(=O)NCc2ccc3c(c2)OCO3)o1`, the cell number change is -7.62%. For the same compound, the AC50 under setting [2] was 3.66 µM [falling, single point].
In the case of `C=CCn1cnc2c(c1=O)c1nc3ccccc3nc1n2/N=C/c1cc(OC)c(OC)c(OC)c1`, the cell number change was -20.3%.
Take `CC(=O)Nc1cccc(OCC(=O)Nc2sccc2C(N)=O)c1`: the cell number change is -46.2%. In addition, the AC50 under setting [1] was 5.17 µM [falling, full curve, poor fit]. Also, under setting [2], the AC50 is 6.51 µM [falling, single point].
Turning to `Cc1nc2c([nH]1)C1(CCN(Cc3ccccc3)CC1)C(C#N)=C(N)O2`, the cell number change is 139%. Also, under setting [1], the AC50 is 18.4 µM [rising, single point].
Take `COc1ccc(C(=O)NC2CCN(C(=O)Nc3ccc(F)cc3)CC2)cc1`: the cell number change worked out at 21.2%.
In the case of `Nc1cc2c(cc1C(=O)c1ccc(Cl)cc1)OCCO2`, the cell number change is 139%. Further, the AC50 under setting [1] was 2.06 µM [rising, full curve]. Besides, the AC50 under setting [2] is 2.91 µM [rising, partial curve].
Turning to `CC(=O)Nc1ccc(NC(=O)CSc2ncc(C(=O)Nc3ccccc3)c(=O)n2C)cc1`, the concentration at half-maximal activity (AC50) under setting [1] was 3.66 µM [rising, single point].
`Cc1ccccc1[C@@H](NC(=O)OC(C)(C)C)C(=O)OC(C)(C)C`: the cell number change was -13.3%.
For the compound `CCC(C)[C@H](NC(=O)N1CCN(c2cccc(C(F)(F)F)c2)CC1)C(=O)OC` (some centres not stated), the AC50 under setting [2] was 6.51 µM [rising, single point].
Consider `COc1ccccc1-c1ccc2nnc(SCC(=O)N3CCCC3)n2n1`, for which the half-maximal activity concentration (AC50) under setting [2] was 0.326 µM [rising, partial curve, poor fit].
Consider `Cc1ccc(C(=O)N(CC(=O)NC2CCCC2)c2ccccc2Cl)s1`, for which the cell number change was 12.6%. The AC50 under setting [2] is 29.1 µM [falling, single point].
Take `COc1ccccc1OCC#CCSc1ncccn1`: the cell number change was determined as 5.1%.
As to `O=C(C1=C[C@@H](c2ccccc2)C[C@@H](OCCCCO)O1)N1CCOCC1`, the cell number change was -5.72%. Also, the AC50 under setting [2] is 0.00517 µM [falling, full curve, poor fit].
As to `CN1C(=O)[C@H]2[C@@H](/C=C/c3ccccc3)N3C(=O)CN(CCO)C(=O)[C@@]3(Cc3ccccc3)[C@H]2C1=O`, the cell number change is -1.2%.
Take `CCCC(=O)NC(C)c1nc2ccccc2n1CC` (configuration not stated): the cell number change was -75.9%. Further, the AC50 under setting [1] is 32.6 µM [falling, partial curve]. Besides, the AC50 under setting [2] was 3.66 µM [falling, full curve, poor fit].
As to `Cc1nccn1-c1ccc(C(F)(F)F)cc1[N+](=O)[O-]`, the cell number change stood at 24.2%. For the same compound, the AC50 under setting [2] was 29.1 µM [rising, single point].
Turning to `Cc1ccccc1Nc1nc(N)nc(COC(=O)/C=C/c2ccco2)n1`, under setting [1], the AC50 was 2.31 µM [rising, partial curve, poor fit].
Turning to `COc1ccc(CNC(=O)CN2CCN(S(=O)(=O)c3cc(Br)ccc3Br)CC2)cc1OC`, the cell number change was -13.2%. The AC50 under setting [2] was 0.164 µM [falling, full curve, poor fit].
Take `COc1ccc(OC)c(NC(=O)NCCCCc2ccccc2)c1`: the AC50 under setting [2] was 29.1 µM [falling, single point].
In the case of `CCOc1ccc(CNc2nc3ccccc3n2C)cc1`, the cell number change was -28.4%. The AC50 under setting [2] is 1.64 µM [rising, partial curve, poor fit].
In the case of `C=C(C)C1CC=C(C)/C(=N/NC(=O)CCCNc2cccc(C)c2)C1` (configuration not stated), the cell number change was 1.99%. In addition, the AC50 under setting [1] was 1.46 µM [rising, full curve, poor fit].
For `CCOC(=O)c1c(-c2ccc(C)o2)csc1NC(=O)CN(C)CC(=O)Nc1ccc(C)cc1`, the cell number change was 116%. In addition, the AC50 under setting [1] was 5.8 µM [rising, full curve]. Further, the AC50 under setting [2] is 0.103 µM [rising, full curve, poor fit].
With `N#CCCN(Cc1ccccc1)C(=O)c1nccnc1C(=O)O`, the cell number change is -26.9%. For the same compound, the AC50 under setting [1] was 3.26 µM [falling, full curve, poor fit]. Besides, the AC50 under setting [2] is 3.66 µM [falling, full curve].
As for `CCOc1c(Cl)cc(C2NC(=O)NC(C)=C2C(=O)NCc2ccccc2)cc1OC` (configuration not stated), the cell number change was -2.09%. Moreover, the AC50 under setting [2] is 6.51 µM [rising, single point].
On to `O=c1[nH]cc(S(=O)(=O)N2CCOCC2)c(=O)[nH]1`, for which the cell number change was -38.5%. In addition, the AC50 under setting [1] is 4.61 µM [falling, full curve, poor fit].
As for `CCOC(=O)N1CCN(C(=O)c2ccc3c(=O)n(-c4ccc(OC)cc4)c(=S)[nH]c3c2)CC1`, the cell number change is -13.2%.
For `CCCCn1c2ccc(C)cc2c2nnc(SCCN3CCCCC3)nc21`, the cell number change is -12%.
Consider `C/C(CC(=O)Nc1ccc2c(c1)OCCO2)=N\NC(=O)COc1cccc(C)c1`, for which the cell number change worked out at 18.4%.
Turning to `COc1ccc([N+](=O)[O-])cc1N(CC(O)CN(CC(C)C)CC(C)C)S(=O)(=O)c1ccc(C)cc1` (configuration not stated), the cell number change was -16.3%. For the same compound, the AC50 under setting [2] was 6.51 µM [rising, single point].
On to `CCc1nnc(NC(=O)C2CCCN2S(=O)(=O)c2ccc(C)cc2)s1` (configuration not stated), for which the cell number change was -92.7%. For the same compound, the AC50 under setting [1] is 29.1 µM [falling, single point].
For `COc1ccc(CNC(=O)COc2cc(O)c3c(c2)OC(C)(C)CC3=O)c(OC)c1`, the cell number change came to 5.83%. In addition, the AC50 under setting [2] was 20.6 µM [falling, single point].
`COc1ccccc1NC(=O)CC12CC3CC(CC(Br)(C3)C1)C2`: the cell number change was 6.67%. The half-maximal activity concentration (AC50) under setting [2] is 0.206 µM [falling, single point].
For the compound `COc1ccc(CCNC(=O)c2cc(-c3ccc(C)c(C)c3O)n[nH]2)cc1OC`, the cell number change is -19.6%. The AC50 under setting [2] is 20.6 µM [falling, single point].
As for `COc1cc(/C=N/O)ccc1Oc1ccc([N+](=O)[O-])cc1[N+](=O)[O-]`, the cell number change was 1.93%. Moreover, the AC50 under setting [2] is 0.092 µM [falling, full curve, poor fit].
As to `O=C(Cn1ccc([N+](=O)[O-])n1)NCc1nc2ccccc2[nH]1`, the cell number change is 12.5%. The AC50 under setting [2] was 0.461 µM [falling, single point].
Take `NC(=O)c1cc2ccccc2o/c1=N/NC(=O)c1cccc(Cl)c1`: the cell number change was -9.15%.
For the compound `COc1ccc(-c2noc(COc3ccc(C)c(C)c3)n2)cc1OC`, the AC50 under setting [2] was 29.1 µM [rising, single point].
`Cc1cc(Br)ccc1SCC(=O)OCC(=O)Nc1ccc2[nH]c(=O)[nH]c2c1`: the cell number change was -0.13%. The AC50 under setting [2] is 3.26 µM [rising, partial curve, poor fit].
As to `COc1cc([N+](=O)[O-])ccc1NC(=O)N1CCCCCC1`, the cell number change is 7.03%. Moreover, under setting [2], the AC50 is 13 µM [falling, partial curve, poor fit].
As to `NC(=O)C1(c2ccccc2)CCCN1C(=O)c1ccccc1Br` (configuration not stated), the cell number change was 28.1%. For the same compound, the AC50 under setting [2] is 29.1 µM [rising, partial curve, poor fit].
`CSc1ccccc1NC(=O)c1ccc(Br)o1`: the cell number change is -52.6%. In addition, the AC50 under setting [1] is 11.6 µM [falling, partial curve].
Consider `CC(C)CNC(=O)c1c(N)n(/N=C/c2ccccn2)c2nc3ccccc3nc12`, for which the AC50 was 0.411 µM [rising, partial curve, poor fit] under setting [1] and 0.411 µM [rising, partial curve, poor fit] under setting [2].
For `CCOC(=O)c1[nH]c(C)c(C(=O)Nc2cccc(Cl)c2C)c1C`, the cell number change is -12.5%. Also, under setting [2], the AC50 was 0.82 µM [rising, full curve, poor fit].
In the case of `O=[N+]([O-])c1cccc(C2=NC(c3ccccc3)CO2)c1` (configuration not stated), the cell number change is -4.49%. In addition, the AC50 under setting [2] was 0.146 µM [falling, full curve, poor fit].
`CN(C)c1cccc(C(=O)Nc2ccc(N3CCOCC3)cc2)c1`: the cell number change is 30.9%. Moreover, the AC50 under setting [1] is 0.461 µM [rising, partial curve]. In addition, under setting [2], the AC50 is 2.06 µM [rising, partial curve].
With `CS(=O)(=O)Nc1ccc(C(=O)NCCSc2ccc(Cl)cc2)cc1`, the cell number change was -13.8%.
With `Cc1cc([N+](=O)[O-])nn1CC(=O)NCCc1c[nH]c2ccccc12`, the cell number change worked out at 18.1%. Further, the AC50 under setting [1] was 0.0291 µM [rising, full curve, poor fit]. For the same compound, the AC50 under setting [2] was 0.259 µM [rising, full curve, poor fit].
With `CC(C)N(C)C1CCN(C(=O)Nc2ccc(Cl)cc2)CC1`, the cell number change was -3.57%. In addition, the AC50 under setting [2] was 25.9 µM [rising, single point].
`Cc1nn(C)c(NC(=O)c2ccccc2Cl)c1Br`: the cell number change was 9.72%.
Turning to `O=C(C(NS(=O)(=O)c1cccc2nsnc12)c1ccccc1)N1CCN(c2ccccc2)CC1` (configuration not stated), the cell number change is -114%. Moreover, the AC50 under setting [2] was 18.4 µM [falling, single point].
Turning to `CCOC(=O)c1ccccc1NC(=S)N1CCCCC1`, the cell number change came out at 0.732%. Further, under setting [2], the AC50 is 0.291 µM [rising, partial curve, poor fit].
`CCn1cc(C(=O)OCC(=O)c2cc(C)n(-c3ccccc3)c2C)c(=O)c2ccc(C)nc21`: the cell number change came out at 9.21%. Further, the AC50 under setting [2] was 14.6 µM [rising, single point].
`FC(F)(F)c1cccc(NCc2n[nH]c(=S)n2C2CCCCC2)c1`: the cell number change came to 1.59%.
With `CC(=O)c1c(C)[nH]c(C(=O)NCc2cccc(Cl)c2)c1C`, the cell number change is -2.03%. Also, the AC50 under setting [1] was 0.116 µM [rising, full curve, poor fit]. In addition, the AC50 under setting [2] is 4.11 µM [rising, single point].
Turning to `Cc1ccc(CS(=O)(=O)CCC(=O)NCC2CCCO2)cc1` (configuration not stated), the cell number change is -119%. The AC50 under setting [1] was 29.1 µM [falling, single point]. For the same compound, the AC50 under setting [2] was 29.1 µM [falling, partial curve].
On to `CC1CN(C(=O)CSc2nc(N)cc(N)n2)CC(C)O1` (configuration not stated), for which the cell number change was -9.94%. Moreover, the AC50 under setting [2] was 0.103 µM [falling, full curve, poor fit].

Usually AC50 stands for the concentration at which the activity in the assay is half-maximal. Low readings indicate greater potency, high ones weaker potency.
